These results are taken from patent publication US11441098B2, “α-hydroxyisobutyrate ester compound, fragrance composition, and use thereof as fragrance” (MITSUBISHI GAS CHEMICAL COMPANY, INC., priority 2018, dated 2022).

The first data set in a line: Aroma evaluation performed by perfumers for the α-hydroxyisobutyrate esters. To be noted: ester alone. The source says: The results of aroma evaluation performed by perfumers for the various α-hydroxyisobutyrate esters obtained by the method described above are shown in Table 1.
For `CC(C)CC(C)OC(=O)C(C)(C)O` (racemic) [Example 13, 4-Methylpentan-2-yl α-hydroxyisobutyrate], the Aroma evaluation result is given as “Green mint-like aroma Spicy aroma Jasmine-like floral aroma Peach-like fruity aroma”.
Same read-out and setting: then `CCOC(=O)C(C)(C)O` [Example 1, ethyl α-hydroxyisobutyrate], with “Mint-like aroma Chamomile-like herbal aroma Green apple-like fruity aroma”; and `CCCOC(=O)C(C)(C)O` [Example 2, n-Propyl α-hydroxyisobutyrate], with “Mint-like aroma Lilac-like white floral aroma Sweet coconut-like aroma”.
Still for that read-out and setting: for `CC(C)OC(=O)C(C)(C)O` [Example 3, Isopropyl α-hydroxyisobutyrate] the value was “Mint-like aroma Lilac-like floral-green aroma”; for `CCCCOC(=O)C(C)(C)O` [Example 4, n-Butyl α-hydroxyisobutyrate], “Mint-like aroma Floral aroma Coconut-like aroma”; for `CC(C)COC(=O)C(C)(C)O` [Example 5, Isobutyl α-hydroxyisobutyrate], “Mint-like aroma Sweet floral aroma Coconut-like aroma”.
On the same count and under the same terms, then `CCC(C)OC(=O)C(C)(C)O` (stereo not drawn) [Example 6, sec-Butyl α-hydroxyisobutyrate], with “Floral green aroma Balsamic green aroma Fruity-like green aroma”.
`CCC(C)COC(=O)C(C)(C)O` (stereo not drawn) [Example 7, 2-Methylbutyl α-hydroxyisobutyrate]: the Aroma evaluation result is recorded as “Muguet-like floral aroma Lilac-like floral aroma Green mint-like aroma Coconut-like fruity aroma”.
The same measure, in the same setting: for `CC(C)(C)COC(=O)C(C)(C)O` [Example 8, Neopentyl α-hydroxyisobutyrate] the value was “Muguet-like floral aroma Rose-like floral aroma Fresh floral aroma Lilac-like floral aroma Coconut-like fruity aroma”; for `CCCC(C)COC(=O)C(C)(C)O` (stereo not drawn) [Example 9, 2-Methylpentyl α-hydroxyisobutyrate], “Peach-like fruity aroma Spicy pear-like aroma Coconut-like fruity aroma Fruity marine aroma”; for `CCCCCCOC(=O)C(C)(C)O` [Example 10, n-Hexyl α-hydroxyisobutyrate], “Sweet milky aroma Floral aroma Strong green aroma”.
Same read-out and setting: for `CC(C)(O)C(=O)OC1CCCC1` [Example 11, Cyclopentyl α-hydroxyisobutyrate] the value was “Fresh mint-like aroma Fruity aroma Lilac-like, lily of the valley-like, and gardenia-like White floral aroma”; for `CC(C)(O)C(=O)OC1CCCCC1` [Example 12, Cyclohexyl α-hydroxyisobutyrate], “Mint-like aroma Sweet coconut-like aroma Lilac-like floral aroma”.

The next data set is described as follows: Comparative aroma evaluation by perfumers of mint-tone fragrances diluted with ester of Example 3 versus ethanol. To be noted: 10 parts by mass of mint fragrance in 90 parts by mass of isopropyl α-hydroxyisobutyrate versus 90 parts 99.5% ethanol. On the procedure:
A fragrance composition was prepared by adding 90 parts by mass of the isopropyl α-hydroxyisobutyrate obtained in Example 3 to 10 parts by mass of L-menthol. In addition, a fragrance composition was prepared, as a comparative target, by adding 90 parts by mass of 99.5% ethanol to 10 parts by mass of L-menthol. According to the aroma evaluation by perfumers, the difference between both the aromas were comparatively evaluated. DL-menthone and L-carvone were also comparatively evaluated in the same manner.
Take `CC(C)[C@@H]1CC[C@@H](C)CC1=O` (racemic) [DL-Menthone, DL-menthone]: the “Aroma evaluation of solution of ester of Example 3 in comparison with ethanol solution” value is recorded as “A more natural mint-like aroma having an emphasized”.
For the compound `CC(C)[C@@H]1CC[C@@H](C)C[C@H]1O` [L-Menthol, L-menthol], the “Aroma evaluation of solution of ester of Example 3 in comparison with ethanol solution” value is recorded as “A more natural mint-like aroma having an emphasized”.
The same measure, in the same setting: then L-carvone, with “A more natural and mild mint-like aroma, to which a”.

Assay in a further data set: not given
Particulars: Non Patent Document 1 / Patent Document 1; cited from earlier work.
Consider `CCCCOC(=O)C(C)C` [butyl isobutyrate], for which the Scent entry is “fresh apple- and banana-like scent”.
Consider `CC(C)CCOC(=O)C(C)C` [isoamyl isobutyrate], for which the Scent entry is “sweet apricot- and pineapple-like scent”.
For `COC(=O)C(C)C` [methyl isobutyrate], the Scent entry is recorded as “sweet apricot-like scent”.
Turning to `CCCCCCOC(=O)C(C)(C)OCC` [n-hexyl α-ethoxyisobutyrate], the Scent entry is given as “lavender-like aroma”.
Consider `CCCOC(=O)C(C)C` [propyl isobutyrate], for which the Scent result was “strong pineapple-like scent”.
